Our source for the binding values is article PMC12526889.

Common to all, as to assay: two-hybrid; GAL4 DNA-BD (pGBT9-GW) and AD (pGAD424-GW) fusions in yeast AH109; growth on -TLH (moderately selective) and -TLHA (severely selective) media, 30 °C, 3 days; BD constructs of CENP-C, SPC24.1, DSN1 and ZWINT1.1 self-activated
The target in assay [1] is T1, NDC80 (Arabidopsis), two-hybrid fusion (Arabidopsis thaliana) (UniProt Q9M1G5).
T1 sequence: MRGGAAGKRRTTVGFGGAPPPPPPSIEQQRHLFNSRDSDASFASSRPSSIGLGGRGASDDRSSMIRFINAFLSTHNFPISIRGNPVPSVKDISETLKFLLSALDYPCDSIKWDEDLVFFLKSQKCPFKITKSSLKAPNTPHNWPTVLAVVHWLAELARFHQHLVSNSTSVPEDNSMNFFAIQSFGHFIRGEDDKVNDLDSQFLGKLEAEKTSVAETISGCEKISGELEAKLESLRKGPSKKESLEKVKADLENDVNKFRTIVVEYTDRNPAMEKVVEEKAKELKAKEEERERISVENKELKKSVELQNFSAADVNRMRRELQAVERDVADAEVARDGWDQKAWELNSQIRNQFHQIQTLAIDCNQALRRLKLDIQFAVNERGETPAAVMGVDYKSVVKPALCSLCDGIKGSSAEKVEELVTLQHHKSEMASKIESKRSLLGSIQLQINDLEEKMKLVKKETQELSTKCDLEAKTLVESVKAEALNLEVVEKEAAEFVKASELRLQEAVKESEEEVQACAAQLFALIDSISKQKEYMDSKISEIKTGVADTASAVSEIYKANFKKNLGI

Assay [2] deals with T2, NUF2 (Arabidopsis), two-hybrid fusion (Arabidopsis thaliana) (UniProt Q8RXJ0).
T2 sequence: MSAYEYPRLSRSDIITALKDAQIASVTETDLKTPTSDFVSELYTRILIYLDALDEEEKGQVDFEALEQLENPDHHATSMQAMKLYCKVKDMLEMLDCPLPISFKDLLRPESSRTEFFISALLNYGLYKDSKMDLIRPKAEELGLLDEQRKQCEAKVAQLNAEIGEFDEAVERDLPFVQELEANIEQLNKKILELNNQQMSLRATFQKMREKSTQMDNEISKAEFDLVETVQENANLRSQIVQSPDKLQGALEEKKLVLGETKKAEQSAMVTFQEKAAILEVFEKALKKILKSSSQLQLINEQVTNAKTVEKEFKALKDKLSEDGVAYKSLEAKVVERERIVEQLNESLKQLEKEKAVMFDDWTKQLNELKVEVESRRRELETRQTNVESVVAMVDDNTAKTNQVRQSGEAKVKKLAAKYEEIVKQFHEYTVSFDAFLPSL

For assay [3], the target named is T3, MIS12 (Arabidopsis), two-hybrid fusion (Arabidopsis thaliana) (UniProt Q2V0Z5).
T3 sequence: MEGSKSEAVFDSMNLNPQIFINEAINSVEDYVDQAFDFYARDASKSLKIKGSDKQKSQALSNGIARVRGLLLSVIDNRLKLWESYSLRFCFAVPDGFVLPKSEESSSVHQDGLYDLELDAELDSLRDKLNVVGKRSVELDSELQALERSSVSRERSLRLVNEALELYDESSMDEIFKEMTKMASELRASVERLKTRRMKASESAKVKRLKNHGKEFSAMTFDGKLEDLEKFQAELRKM

Assay [4] deals with T4, CENP-S (Arabidopsis), two-hybrid fusion (Arabidopsis thaliana) (UniProt Q9FI55).
T4 sequence: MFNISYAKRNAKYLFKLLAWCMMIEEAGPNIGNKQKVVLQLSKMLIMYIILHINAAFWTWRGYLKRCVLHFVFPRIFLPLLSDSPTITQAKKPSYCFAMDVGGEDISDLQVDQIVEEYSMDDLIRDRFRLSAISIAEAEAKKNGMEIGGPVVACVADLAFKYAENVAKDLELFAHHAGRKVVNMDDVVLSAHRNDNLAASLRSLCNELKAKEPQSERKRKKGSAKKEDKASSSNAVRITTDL

For assay [5], the target named is MPS1 (Arabidopsis), two-hybrid fusion (Arabidopsis thaliana) (UniProt Q84VX4).

Results are given in words; binding and its absence hold for the method and conditions named. Some entries that bind do so weakly or less than the wild type. Tags and fused reporters may be left off the sequences shown.

B1: MAD1 (Arabidopsis), two-hybrid fusion (protein, UniProt Q9LTY1 1-726)
chain: MILRTPQPKRLRSDAGESPFPTGATGSGNQLIIYEDSPLPAPAPLQTSHDHSADQHLCTYQCRQMVKADVLDALSTAEKQVEESKTKLQTLNANFTEADAERKHFRDKFLYSEQELAAAKAREKMLQEQLLMEINNSQERYTKELQSCHELEVKLQNEMNLRKKAESSAATAEEKAKLLEDKLTQLSGSVDREKKRLNNDIAQLGKEAKLSVARIGADLERMQCRAQNAETESNLLRSQLEHLKLIFDECLQEKTEVDKKLSSFTSEAASSSDNSVLVKHLQEELKRYEAEVREARKLKSRHLDAELLNVNLLEEQSRRERAESELSKFHDLQLSMEKLENELSSWKSLLNDIPGVSCPDDIVMRFSVLQNEVVQSTMKIGEASTRIKQLEETLEAIQLGRQNAVSEAALAKEKSEALKTDVKRIEVMLTLVTEEKEQLKAVVNELRKSNSEGSVSGAADGALIQGFESSLAKKENYIKDLEQDLNQLKDVNNRQRTEIELLNEKLVDEARRNKSLERDSDRLRSEISLLESKLGHGDYSAANTRVLRMVNTLGVENEAKQTIEALQAELQKTKERLQAVEELKSQSGDAGKLVDSHITGKIAQLKEQNATLEKREERYKTVFADRISVFRRACCELFGYKIVMDEHQRPNGIPVTRFTLQSIYAQSDDEKLEFEYESGNTSILNNEYASQGDIAKQIEIFIRKFNSIPAFTANLTMESFNRRTLY
Regarding B1, the binding result in assay [1] and in assay [2] was “binds” in each case.

B2: MIS12 (Arabidopsis), two-hybrid fusion (protein, UniProt Q2V0Z5 1-238)
chain: MEGSKSEAVFDSMNLNPQIFINEAINSVEDYVDQAFDFYARDASKSLKIKGSDKQKSQALSNGIARVRGLLLSVIDNRLKLWESYSLRFCFAVPDGFVLPKSEESSSVHQDGLYDLELDAELDSLRDKLNVVGKRSVELDSELQALERSSVSRERSLRLVNEALELYDESSMDEIFKEMTKMASELRASVERLKTRRMKASESAKVKRLKNHGKEFSAMTFDGKLEDLEKFQAELRKM
Regarding B2, the binding entry in assay [3] is “binds”.

B3: CENP-X (Arabidopsis), two-hybrid fusion (protein, UniProt Q8L7N3 1-104)
chain: MDANNTFDSDLIHAIFKHIWARRFRERERSDAIDATEAEVALGTTKKNRLASANANALKLSCELLKSFVSEAVQRAAIIAEAEGMEKIEATHLERILPQLLLDF
For B3, the binding result in assay [4] is “binds”.

B4: MPS1 (Arabidopsis), two-hybrid fusion (enzyme, UniProt Q84VX4 1-777)
chain: MDREDNLPVQPDKPPKSLVRPILNLETTSSSSSSSSSSPELLRHLQAAFKRHRPLSKMQTTSIGPRRSVAPQRQASRNTRLVTAEGQRSQDVVTLSQSLAANTLTQDTTNNLAITSVAGESASITQPTVSEHFNPSDRQMDFGKSAVTSLESNLDVQRKSQSLIGTSQDMEWDATNQAEASHLDACIGSKHQNLPSVDSEVSLKSEYKDSSSLAKIQGQLGEFPNFLNQPRTRCSAVGSSWATTTLIHSSSAPMLNATTHVSRSYVEADSNANPHAVQSQGNLPSCCPSSKVSNILHPNKDATASEMPASTNDPEVRVKETDTSKQQQITTGLEAPVGSSIYGSDGQANARLPEELHTSVSSQPQKSDKHEKVASSKGPSAPRKRNYDPDLFFKVNGKLYQRLGKIGSGGSSEVHKVISSDCTIYALKKIKLKGRDYATAYGFCQEIGYLKKLKGKTNIIQLIDYEVTDKTLLQEVLNGTMSNKDGRVKEDGFIYMVLEYGEIDLAHMLSQKWREIEGSDRTIDENWLRFYWQQILQAVNTIHEERIVHSDLKPANFLLVRGFLKLIDFGIAKAINSDTTNIQRDSQVGTLSYMSPEAFMCNESDENGNTIKCGRPSDIWSLGCILYQMVYGRTPFADYKTFWAKFKVITDPNHEITYNQLSNPWLIDLMKKCLAWDRNQRWRIPELLQHPFLAPPIPHEPQVKTIKLFSLIAESCGSDDDKANSMISQLEQLLSNPAPLPRNDVLDSRDQNQQLLSRVSELCIQLQDRLQGLEGEN
In the case of B4, the binding result was “no binding” in assay [1] and “binds” in assay [5].

B5: NDC80 (Arabidopsis), two-hybrid fusion (protein, UniProt Q9M1G5 1-568)
chain: MRGGAAGKRRTTVGFGGAPPPPPPSIEQQRHLFNSRDSDASFASSRPSSIGLGGRGASDDRSSMIRFINAFLSTHNFPISIRGNPVPSVKDISETLKFLLSALDYPCDSIKWDEDLVFFLKSQKCPFKITKSSLKAPNTPHNWPTVLAVVHWLAELARFHQHLVSNSTSVPEDNSMNFFAIQSFGHFIRGEDDKVNDLDSQFLGKLEAEKTSVAETISGCEKISGELEAKLESLRKGPSKKESLEKVKADLENDVNKFRTIVVEYTDRNPAMEKVVEEKAKELKAKEEERERISVENKELKKSVELQNFSAADVNRMRRELQAVERDVADAEVARDGWDQKAWELNSQIRNQFHQIQTLAIDCNQALRRLKLDIQFAVNERGETPAAVMGVDYKSVVKPALCSLCDGIKGSSAEKVEELVTLQHHKSEMASKIESKRSLLGSIQLQINDLEEKMKLVKKETQELSTKCDLEAKTLVESVKAEALNLEVVEKEAAEFVKASELRLQEAVKESEEEVQACAAQLFALIDSISKQKEYMDSKISEIKTGVADTASAVSEIYKANFKKNLGI
As for B5, the binding result in assay [1] and in assay [3] was “binds” in each case.

B6: NUF2 (Arabidopsis), two-hybrid fusion (protein, UniProt Q8RXJ0 1-440)
chain: MSAYEYPRLSRSDIITALKDAQIASVTETDLKTPTSDFVSELYTRILIYLDALDEEEKGQVDFEALEQLENPDHHATSMQAMKLYCKVKDMLEMLDCPLPISFKDLLRPESSRTEFFISALLNYGLYKDSKMDLIRPKAEELGLLDEQRKQCEAKVAQLNAEIGEFDEAVERDLPFVQELEANIEQLNKKILELNNQQMSLRATFQKMREKSTQMDNEISKAEFDLVETVQENANLRSQIVQSPDKLQGALEEKKLVLGETKKAEQSAMVTFQEKAAILEVFEKALKKILKSSSQLQLINEQVTNAKTVEKEFKALKDKLSEDGVAYKSLEAKVVERERIVEQLNESLKQLEKEKAVMFDDWTKQLNELKVEVESRRRELETRQTNVESVVAMVDDNTAKTNQVRQSGEAKVKKLAAKYEEIVKQFHEYTVSFDAFLPSL
As to B6, the binding entry in assay [2] is given as “binds”.
